This is one part of the list.

By UniProt entry, the sequences of proteins in these tests, tags left out. Where a name states a change or a piece, a line headed by the entry shows the natural chain unless it says otherwise.
UniProt P17707: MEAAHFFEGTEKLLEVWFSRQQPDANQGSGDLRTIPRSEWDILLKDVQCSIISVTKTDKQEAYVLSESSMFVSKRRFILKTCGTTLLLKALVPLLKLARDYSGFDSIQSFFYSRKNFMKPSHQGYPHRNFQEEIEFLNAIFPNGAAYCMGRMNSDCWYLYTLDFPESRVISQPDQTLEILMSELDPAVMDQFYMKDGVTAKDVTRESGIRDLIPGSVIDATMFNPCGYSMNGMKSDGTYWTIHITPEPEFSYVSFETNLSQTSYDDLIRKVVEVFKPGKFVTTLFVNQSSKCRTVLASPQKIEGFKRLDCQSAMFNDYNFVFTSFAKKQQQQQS
UniProt P16157: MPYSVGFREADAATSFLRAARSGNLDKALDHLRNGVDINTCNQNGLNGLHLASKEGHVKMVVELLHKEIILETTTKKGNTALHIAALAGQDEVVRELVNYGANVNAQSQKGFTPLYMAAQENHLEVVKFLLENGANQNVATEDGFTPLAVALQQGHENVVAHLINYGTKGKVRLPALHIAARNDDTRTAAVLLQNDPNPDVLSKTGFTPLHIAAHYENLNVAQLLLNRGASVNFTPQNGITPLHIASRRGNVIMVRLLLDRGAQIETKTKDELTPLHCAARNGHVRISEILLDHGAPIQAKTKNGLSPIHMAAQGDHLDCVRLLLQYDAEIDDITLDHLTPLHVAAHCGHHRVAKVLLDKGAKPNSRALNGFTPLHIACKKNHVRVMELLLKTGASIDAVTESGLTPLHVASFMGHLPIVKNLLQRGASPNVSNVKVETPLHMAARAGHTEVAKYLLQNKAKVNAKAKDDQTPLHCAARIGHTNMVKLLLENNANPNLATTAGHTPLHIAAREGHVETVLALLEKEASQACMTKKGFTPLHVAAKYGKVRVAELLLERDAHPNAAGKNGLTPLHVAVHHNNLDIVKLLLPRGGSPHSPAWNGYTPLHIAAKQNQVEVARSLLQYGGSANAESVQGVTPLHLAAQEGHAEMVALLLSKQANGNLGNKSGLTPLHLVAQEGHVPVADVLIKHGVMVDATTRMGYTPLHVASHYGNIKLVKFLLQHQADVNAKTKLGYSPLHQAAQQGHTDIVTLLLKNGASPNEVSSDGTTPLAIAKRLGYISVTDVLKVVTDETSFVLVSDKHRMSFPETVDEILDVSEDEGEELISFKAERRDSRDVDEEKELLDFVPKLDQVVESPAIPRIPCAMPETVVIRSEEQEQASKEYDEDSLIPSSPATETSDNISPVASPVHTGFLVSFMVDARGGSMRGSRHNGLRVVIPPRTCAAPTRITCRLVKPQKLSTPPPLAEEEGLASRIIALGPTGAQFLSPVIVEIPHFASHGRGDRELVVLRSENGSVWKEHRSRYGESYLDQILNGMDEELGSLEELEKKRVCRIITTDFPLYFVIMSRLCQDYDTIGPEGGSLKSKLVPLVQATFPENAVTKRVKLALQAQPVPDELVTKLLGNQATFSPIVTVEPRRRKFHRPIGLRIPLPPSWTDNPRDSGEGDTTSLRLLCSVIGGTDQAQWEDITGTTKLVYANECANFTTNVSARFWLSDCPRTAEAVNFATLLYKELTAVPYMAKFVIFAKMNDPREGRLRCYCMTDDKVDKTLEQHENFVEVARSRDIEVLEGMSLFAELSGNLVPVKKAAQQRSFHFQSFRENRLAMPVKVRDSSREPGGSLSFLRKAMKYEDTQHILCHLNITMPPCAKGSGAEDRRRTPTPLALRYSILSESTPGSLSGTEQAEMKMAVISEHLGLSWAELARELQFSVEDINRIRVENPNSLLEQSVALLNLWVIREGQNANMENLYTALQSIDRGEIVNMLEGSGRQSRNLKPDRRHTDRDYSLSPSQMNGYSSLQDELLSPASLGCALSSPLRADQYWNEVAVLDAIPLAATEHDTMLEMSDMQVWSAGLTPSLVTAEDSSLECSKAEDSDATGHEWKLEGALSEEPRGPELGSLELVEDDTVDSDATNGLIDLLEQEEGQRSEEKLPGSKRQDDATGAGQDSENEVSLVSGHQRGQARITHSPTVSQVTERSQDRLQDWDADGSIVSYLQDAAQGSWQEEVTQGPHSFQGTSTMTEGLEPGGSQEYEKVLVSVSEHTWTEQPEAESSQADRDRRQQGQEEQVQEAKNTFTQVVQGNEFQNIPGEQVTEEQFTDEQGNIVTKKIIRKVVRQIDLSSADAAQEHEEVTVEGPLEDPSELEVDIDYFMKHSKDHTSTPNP
UniProt Q92572: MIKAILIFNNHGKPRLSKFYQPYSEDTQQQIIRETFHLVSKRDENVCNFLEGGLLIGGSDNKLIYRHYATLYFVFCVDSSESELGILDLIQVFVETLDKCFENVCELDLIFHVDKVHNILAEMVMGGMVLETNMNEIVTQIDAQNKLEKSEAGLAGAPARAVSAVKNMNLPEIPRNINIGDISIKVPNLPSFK
UniProt Q96Q42: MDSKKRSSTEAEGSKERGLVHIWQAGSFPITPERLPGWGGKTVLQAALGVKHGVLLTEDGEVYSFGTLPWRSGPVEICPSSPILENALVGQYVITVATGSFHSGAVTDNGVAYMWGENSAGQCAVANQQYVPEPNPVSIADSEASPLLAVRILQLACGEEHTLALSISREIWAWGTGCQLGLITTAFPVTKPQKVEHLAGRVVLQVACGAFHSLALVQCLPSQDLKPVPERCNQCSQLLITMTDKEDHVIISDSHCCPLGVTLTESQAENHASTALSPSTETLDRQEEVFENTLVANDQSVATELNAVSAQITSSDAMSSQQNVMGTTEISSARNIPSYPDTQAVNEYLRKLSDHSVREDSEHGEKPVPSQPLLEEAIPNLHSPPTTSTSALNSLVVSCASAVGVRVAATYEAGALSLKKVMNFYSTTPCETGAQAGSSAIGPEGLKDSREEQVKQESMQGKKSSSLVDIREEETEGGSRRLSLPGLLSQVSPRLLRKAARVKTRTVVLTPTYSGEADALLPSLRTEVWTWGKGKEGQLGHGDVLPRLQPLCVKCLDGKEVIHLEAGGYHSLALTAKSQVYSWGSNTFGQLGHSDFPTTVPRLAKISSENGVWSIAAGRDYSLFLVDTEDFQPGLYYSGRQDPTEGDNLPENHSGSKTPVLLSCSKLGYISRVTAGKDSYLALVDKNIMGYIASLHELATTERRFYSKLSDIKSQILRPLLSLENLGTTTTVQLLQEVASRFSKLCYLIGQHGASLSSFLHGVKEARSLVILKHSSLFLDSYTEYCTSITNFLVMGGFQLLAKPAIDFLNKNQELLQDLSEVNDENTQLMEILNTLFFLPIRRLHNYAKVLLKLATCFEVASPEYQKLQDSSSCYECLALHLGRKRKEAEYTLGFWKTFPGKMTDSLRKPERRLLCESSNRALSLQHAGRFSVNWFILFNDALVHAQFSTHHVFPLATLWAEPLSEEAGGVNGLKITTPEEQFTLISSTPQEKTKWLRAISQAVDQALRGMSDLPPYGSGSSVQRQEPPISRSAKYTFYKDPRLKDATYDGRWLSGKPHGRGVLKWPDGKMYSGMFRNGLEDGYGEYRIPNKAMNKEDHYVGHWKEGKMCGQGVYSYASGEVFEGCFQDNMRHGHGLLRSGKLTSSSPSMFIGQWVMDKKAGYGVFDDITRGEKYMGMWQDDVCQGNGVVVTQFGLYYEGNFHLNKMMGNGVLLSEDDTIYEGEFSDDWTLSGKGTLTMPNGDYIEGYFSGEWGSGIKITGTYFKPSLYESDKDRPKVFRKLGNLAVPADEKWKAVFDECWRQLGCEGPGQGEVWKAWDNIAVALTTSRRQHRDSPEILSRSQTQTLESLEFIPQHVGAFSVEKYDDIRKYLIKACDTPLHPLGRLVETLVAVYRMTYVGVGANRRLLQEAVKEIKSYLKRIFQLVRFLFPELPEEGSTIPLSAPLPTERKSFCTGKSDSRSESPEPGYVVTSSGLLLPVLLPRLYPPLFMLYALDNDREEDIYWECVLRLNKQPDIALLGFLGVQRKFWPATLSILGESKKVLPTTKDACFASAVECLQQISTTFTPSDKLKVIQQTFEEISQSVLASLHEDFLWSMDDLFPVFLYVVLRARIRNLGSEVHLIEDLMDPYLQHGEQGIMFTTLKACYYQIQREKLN
UniProt Q9UJX5, whole entry, looked up: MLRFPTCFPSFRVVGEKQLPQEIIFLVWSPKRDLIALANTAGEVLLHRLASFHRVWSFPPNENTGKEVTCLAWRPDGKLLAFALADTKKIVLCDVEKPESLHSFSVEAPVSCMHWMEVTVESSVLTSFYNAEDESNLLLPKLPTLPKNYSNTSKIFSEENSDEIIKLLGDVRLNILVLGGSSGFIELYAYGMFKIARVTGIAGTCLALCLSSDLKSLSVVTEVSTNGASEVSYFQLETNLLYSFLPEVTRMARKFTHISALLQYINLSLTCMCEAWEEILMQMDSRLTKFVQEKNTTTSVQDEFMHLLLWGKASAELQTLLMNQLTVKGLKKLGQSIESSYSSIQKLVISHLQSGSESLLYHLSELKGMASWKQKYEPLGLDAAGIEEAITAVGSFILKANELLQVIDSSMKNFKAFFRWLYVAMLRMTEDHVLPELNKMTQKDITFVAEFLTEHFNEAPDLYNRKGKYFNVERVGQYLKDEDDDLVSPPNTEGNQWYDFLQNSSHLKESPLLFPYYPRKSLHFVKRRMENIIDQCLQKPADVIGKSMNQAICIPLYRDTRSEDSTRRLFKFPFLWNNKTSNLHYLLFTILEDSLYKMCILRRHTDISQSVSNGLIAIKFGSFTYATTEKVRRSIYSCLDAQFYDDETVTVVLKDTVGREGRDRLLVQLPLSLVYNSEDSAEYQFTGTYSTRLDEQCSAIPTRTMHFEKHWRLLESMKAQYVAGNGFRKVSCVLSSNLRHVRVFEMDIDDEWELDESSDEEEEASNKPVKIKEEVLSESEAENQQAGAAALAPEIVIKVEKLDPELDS
UniProt O14617: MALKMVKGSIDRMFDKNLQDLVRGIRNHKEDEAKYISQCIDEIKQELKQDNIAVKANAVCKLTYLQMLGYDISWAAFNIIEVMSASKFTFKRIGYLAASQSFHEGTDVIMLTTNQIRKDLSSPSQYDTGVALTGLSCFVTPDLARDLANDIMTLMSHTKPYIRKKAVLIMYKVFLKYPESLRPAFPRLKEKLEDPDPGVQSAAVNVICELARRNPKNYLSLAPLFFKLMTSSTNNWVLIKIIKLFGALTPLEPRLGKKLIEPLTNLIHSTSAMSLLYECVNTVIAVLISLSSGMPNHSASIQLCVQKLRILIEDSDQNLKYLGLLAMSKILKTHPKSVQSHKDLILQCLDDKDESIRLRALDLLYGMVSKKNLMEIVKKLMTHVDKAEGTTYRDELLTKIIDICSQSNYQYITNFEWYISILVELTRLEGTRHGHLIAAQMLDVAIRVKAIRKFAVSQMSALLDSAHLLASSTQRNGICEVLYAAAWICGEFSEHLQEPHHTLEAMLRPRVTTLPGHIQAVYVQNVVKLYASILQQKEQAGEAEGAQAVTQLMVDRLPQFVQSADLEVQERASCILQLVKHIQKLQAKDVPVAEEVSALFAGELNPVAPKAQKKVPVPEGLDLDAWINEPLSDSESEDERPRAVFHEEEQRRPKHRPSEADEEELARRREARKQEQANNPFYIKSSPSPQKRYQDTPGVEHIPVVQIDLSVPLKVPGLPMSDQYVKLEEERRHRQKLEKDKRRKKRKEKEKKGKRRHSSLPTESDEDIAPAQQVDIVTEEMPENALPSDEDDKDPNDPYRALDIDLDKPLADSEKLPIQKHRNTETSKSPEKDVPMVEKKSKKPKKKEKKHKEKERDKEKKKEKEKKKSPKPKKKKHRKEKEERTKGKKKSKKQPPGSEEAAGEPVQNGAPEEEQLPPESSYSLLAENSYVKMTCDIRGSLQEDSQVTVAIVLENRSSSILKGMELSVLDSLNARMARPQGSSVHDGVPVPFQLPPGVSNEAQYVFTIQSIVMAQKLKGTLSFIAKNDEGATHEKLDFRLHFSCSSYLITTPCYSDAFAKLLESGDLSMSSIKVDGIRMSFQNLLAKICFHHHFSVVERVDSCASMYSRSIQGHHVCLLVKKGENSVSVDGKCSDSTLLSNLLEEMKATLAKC
UniProt P05091: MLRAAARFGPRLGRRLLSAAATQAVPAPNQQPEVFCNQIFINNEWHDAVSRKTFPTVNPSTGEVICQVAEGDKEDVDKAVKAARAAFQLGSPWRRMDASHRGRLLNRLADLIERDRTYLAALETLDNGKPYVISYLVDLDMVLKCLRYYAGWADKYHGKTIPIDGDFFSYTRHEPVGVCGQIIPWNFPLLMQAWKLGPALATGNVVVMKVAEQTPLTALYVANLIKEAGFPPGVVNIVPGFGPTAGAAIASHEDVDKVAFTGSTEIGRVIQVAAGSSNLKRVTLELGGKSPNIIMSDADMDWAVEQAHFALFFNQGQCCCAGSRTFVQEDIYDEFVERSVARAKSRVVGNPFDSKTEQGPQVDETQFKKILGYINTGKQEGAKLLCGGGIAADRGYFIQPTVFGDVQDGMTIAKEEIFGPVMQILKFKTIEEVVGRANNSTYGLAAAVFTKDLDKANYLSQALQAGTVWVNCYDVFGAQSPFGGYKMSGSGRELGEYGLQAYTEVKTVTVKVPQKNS

Compound in the experiment: CCN(CCCOc1ccc2c(Nc3cc(CC(=O)Nc4cccc(F)c4)[nH]n3)ncnc2c1)CCOP(=O)(O)O [barasertib]
In words: log2 fold change, soluble protein after heating vs DMSO (PISA); higher = thermal stabilisation; K562 lysate, 10 uM; active = over 0.2 and 3.5 SD of the protein, either way, in both replicates (recomputed). Summed up:
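The values are log-two fold changes in thermal stability compared with solvent controls and come from duplicates. They were obtained by TMTpro 16plex LC-MS/MS, with channel sums equalised, on the supernatant after 21,000xg for 90 min. That supernatant came from crude K562 extract at 1 mg/mL protein treated with 10 μM compound for 30 min, heated for 3 min across 48°C-58°C, pooled and brought to 0.5% NP-40 at 4°C.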
With ANKRD54 (UniProt Q6NXT1), the log2 fold change was inactive: -0.026.
Take ALDH6A1 (UniProt Q02252): the log2 fold change was inactive: 0.043.
For ALKBH3 (UniProt Q96Q83), the log2 fold change was inactive: 0.023.
On to AMD1 (UniProt P17707), for which the log2 fold change is inactive: 0.064.
To ANPEP (UniProt P15144) belongs inactive: -0.053; to ANXA11 (UniProt P50995), inactive: 0.002; to ALDH1A1 (UniProt P00352), inactive: -0.014.
With ALDH1B1 (UniProt P30837), the log2 fold change was inactive: -0.022.
Consider ANK1 isoform 14 (UniProt P16157), for which the log2 fold change is inactive: 0.056.
For the target AP3S1 (UniProt Q92572), the log2 fold change is inactive: 0.049.
To ANKRD28 (UniProt O15084) belongs inactive: -0.006; to ALS2 (UniProt Q96Q42), inactive: -0.025; to ANTXR2 isoform 4 (UniProt P58335), inactive: 0.
Turning to ANAPC4 isoform 3 (UniProt Q9UJX5), the log2 fold change is inactive: 0.007.
In the case of ALMS1 (UniProt Q8TCU4), the log2 fold change was inactive: 0.002.
As for AKT1S1 isoform 3 (UniProt Q96B36), the log2 fold change was inactive: 0.019.
In the case of ALDH18A1 (UniProt P54886), the log2 fold change is inactive: 0.033.
With AP2S1 (UniProt P53680), the log2 fold change was inactive: -0.002.
As for AP3D1 isoform 5 (UniProt O14617), the log2 fold change is inactive: 0.036.
For the target AP1B1 (UniProt Q10567), the log2 fold change is inactive: -0.007.
To ALG2 (UniProt Q9H553) belongs inactive: 0.066; to ALDH2 (UniProt P05091), inactive: -0.012.
